PubChem BioAssay AID1224830 – NIAID | 2016
Here is a random part of about 18,000 reagents tested. About 2,900 of all reagents (16%) count as active. 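Calls are made per well; low scores hint the gene aids the LPS response, high scores that it dampens it.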 Repeated entries: four replicate wells of each siRNA pool.

Screen: 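Genes whose knock-down alters the TNF-alpha reporter response to LPS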 (primary screen)
System: human THP-1 monocytic leukaemia cells, TNF dual-luciferase reporter clone, PMA-differentiated to macrophage-like cells
Reagents: siRNA pool against human genes, 50 nM
Time to read-out: LPS for 4 h, given about 3 days after siRNA transfection
Conditions: bacterial LPS (TLR4 ligand), 10 ng/ml
Measured: 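Ratio of firefly to renilla light, scaled to the plate median and expressed as a robust z-score per replicate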
Direction: TNF reporter robust z-score: higher = stronger TNF reporter response to LPS
Rule for the call: 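Each well counts as active if its z-score is over 2.8 or under -1.5; controls are left without a call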

| gene symbol | TNF reporter robust z-score | outcome |
| --- | --- | --- |
| HMGN2P46 | -0.07 | inactive |
| HMGN2P46 | 0.12 | inactive |
| HMGN2P46 | -0.35 | inactive |
| HMGN2P46 | -0.36 | inactive |
| EMC4 (ER membrane protein complex subunit 4) | -0.97 | inactive |
| EMC4 (ER membrane protein complex subunit 4) | -0.77 | inactive |
| EMC4 (ER membrane protein complex subunit 4) | -1.03 | inactive |
| EMC4 (ER membrane protein complex subunit 4) | -0.79 | inactive |
| ITSN2 (intersectin 2) | -1.45 | inactive |
| ITSN2 (intersectin 2) | -1.2 | inactive |
| ITSN2 (intersectin 2) | -1.46 | inactive |
| ITSN2 (intersectin 2) | -0.99 | inactive |
| PIP4K2B (phosphatidylinositol-5-phosphate 4-kinase type 2 beta) | -0.52 | inactive |
| PIP4K2B (phosphatidylinositol-5-phosphate 4-kinase type 2 beta) | -0.58 | inactive |
| PIP4K2B (phosphatidylinositol-5-phosphate 4-kinase type 2 beta) | -0.65 | inactive |
| PAX8 (paired box 8) | 1.14 | inactive |
| PAX8 (paired box 8) | 0.06 | inactive |
| PAX8 (paired box 8) | -0.44 | inactive |
| PAX8 (paired box 8) | 0.05 | inactive |
| RUSC2 (RUN and SH3 domain containing 2) | -0.99 | inactive |
| RUSC2 (RUN and SH3 domain containing 2) | -0.22 | inactive |
| RUSC2 (RUN and SH3 domain containing 2) | -0.36 | inactive |
| RUSC2 (RUN and SH3 domain containing 2) | -0.37 | inactive |
| KCNMB3 | 1.21 | inactive |
| KCNMB3 | 1.33 | inactive |
| KCNMB3 | 2.55 | inactive |
| KCNMB3 | 1.61 | inactive |
| PA2G4 (proliferation-associated 2G4) | -1.12 | inactive |
| PA2G4 (proliferation-associated 2G4) | -0.57 | inactive |
| PA2G4 (proliferation-associated 2G4) | -1.22 | inactive |
| PA2G4 (proliferation-associated 2G4) | -0.42 | inactive |
| DLAT (dihydrolipoamide S-acetyltransferase) | 1.14 | inactive |
| DLAT (dihydrolipoamide S-acetyltransferase) | -0.96 | inactive |
| DLAT (dihydrolipoamide S-acetyltransferase) | 1.36 | inactive |
| DLAT (dihydrolipoamide S-acetyltransferase) | 1.77 | inactive |
| SCGB3A2 (secretoglobin family 3A member 2) | -0.24 | inactive |
| SCGB3A2 (secretoglobin family 3A member 2) | -1.18 | inactive |
| SCGB3A2 (secretoglobin family 3A member 2) | -0.54 | inactive |
| SCGB3A2 (secretoglobin family 3A member 2) | -0.86 | inactive |
| OLFM2 (olfactomedin 2) | -1.51 | active |
| OLFM2 (olfactomedin 2) | -0.46 | inactive |
| OLFM2 (olfactomedin 2) | -0.7 | inactive |
| OLFM2 (olfactomedin 2) | -0.17 | inactive |
| TOX4 (TOX high mobility group box family member 4) | -1.05 | inactive |
| TOX4 (TOX high mobility group box family member 4) | -0.88 | inactive |
| TOX4 (TOX high mobility group box family member 4) | 0.25 | inactive |
| TOX4 (TOX high mobility group box family member 4) | -0.35 | inactive |
| CCDC107 (coiled-coil domain containing 107) | -0.5 | inactive |
| CCDC107 (coiled-coil domain containing 107) | 0.1 | inactive |
| CCDC107 (coiled-coil domain containing 107) | -0.13 | inactive |
| CCDC107 (coiled-coil domain containing 107) | -1.23 | inactive |
| TERT (telomerase reverse transcriptase) | 2.29 | inactive |
| TERT (telomerase reverse transcriptase) | 0.12 | inactive |
| TERT (telomerase reverse transcriptase) | -0.42 | inactive |
| TERT (telomerase reverse transcriptase) | -0.08 | inactive |
| CETN1 (centrin 1) | 0.45 | inactive |
| CETN1 (centrin 1) | 0.03 | inactive |
| CETN1 (centrin 1) | -0.5 | inactive |
| CETN1 (centrin 1) | 1.54 | inactive |
| MARCHF7 (membrane associated ring-CH-type finger 7) | 0.47 | inactive |
| MARCHF7 (membrane associated ring-CH-type finger 7) | 0.7 | inactive |
| MARCHF7 (membrane associated ring-CH-type finger 7) | 3.01 | active |
| MARCHF7 (membrane associated ring-CH-type finger 7) | 2.48 | inactive |
| ZIC3 (Zic family zinc finger 3) | 0.9 | inactive |
| ZIC3 (Zic family zinc finger 3) | 1.15 | inactive |
| ZIC3 (Zic family zinc finger 3) | 0.12 | inactive |
| ZIC3 (Zic family zinc finger 3) | 1.54 | inactive |
| ISOC2 (isochorismatase domain containing 2) | 1.72 | inactive |
| ISOC2 (isochorismatase domain containing 2) | 3.44 | active |
| ISOC2 (isochorismatase domain containing 2) | 3.09 | active |
| ISOC2 (isochorismatase domain containing 2) | 2.86 | active |
| NAPG (NSF attachment protein gamma) | 2.99 | active |
| NAPG (NSF attachment protein gamma) | 3.24 | active |
| NAPG (NSF attachment protein gamma) | 1.06 | inactive |
| NAPG (NSF attachment protein gamma) | 1.03 | inactive |
| OR6T1 (olfactory receptor family 6 subfamily T member 1) | -0.47 | inactive |
| OR6T1 (olfactory receptor family 6 subfamily T member 1) | -0.55 | inactive |
| OR6T1 (olfactory receptor family 6 subfamily T member 1) | -0.53 | inactive |
| OR6T1 (olfactory receptor family 6 subfamily T member 1) | 0.1 | inactive |
| DBNL (drebrin like) | -0.18 | inactive |
| DBNL (drebrin like) | 0.69 | inactive |
| DBNL (drebrin like) | -0.26 | inactive |
| DBNL (drebrin like) | 0.92 | inactive |
| MXD3 (MAX dimerization protein 3) | 0.94 | inactive |
| MXD3 (MAX dimerization protein 3) | 3.04 | active |
| MXD3 (MAX dimerization protein 3) | 3.11 | active |
| MXD3 (MAX dimerization protein 3) | 4.3 | active |
| CARD10 (caspase recruitment domain family member 10) | 1.48 | inactive |
| CARD10 (caspase recruitment domain family member 10) | 1.25 | inactive |
| CARD10 (caspase recruitment domain family member 10) | 8.88 | active |
| CARD10 (caspase recruitment domain family member 10) | 0.07 | inactive |
| RALBP1 (ralA binding protein 1) | -0.21 | inactive |
| RALBP1 (ralA binding protein 1) | -0.1 | inactive |
| RALBP1 (ralA binding protein 1) | -0.49 | inactive |
| RALBP1 (ralA binding protein 1) | 0.22 | inactive |
| DOP1A (DOP1 leucine zipper like protein A) | -0.55 | inactive |
| DOP1A (DOP1 leucine zipper like protein A) | 0.1 | inactive |
| DOP1A (DOP1 leucine zipper like protein A) | -0.71 | inactive |
| DOP1A (DOP1 leucine zipper like protein A) | 0.11 | inactive |
| MARCHF2 (membrane associated ring-CH-type finger 2) | -0.56 | inactive |
| MARCHF2 (membrane associated ring-CH-type finger 2) | -1.97 | active |
| MARCHF2 (membrane associated ring-CH-type finger 2) | -0.11 | inactive |
| MARCHF2 (membrane associated ring-CH-type finger 2) | 1.6 | inactive |
| RTN2 (reticulon 2) | -0.66 | inactive |
| RTN2 (reticulon 2) | 0.12 | inactive |
| RTN2 (reticulon 2) | -0.7 | inactive |
| RTN2 (reticulon 2) | -0.86 | inactive |
| CCL27 (C-C motif chemokine ligand 27) | 0.16 | inactive |
| CCL27 (C-C motif chemokine ligand 27) | 0.6 | inactive |
| CCL27 (C-C motif chemokine ligand 27) | 0.64 | inactive |
| CCL27 (C-C motif chemokine ligand 27) | 0.43 | inactive |

14 successive entries already listed:
| gene symbol | TNF reporter robust z-score | outcome |
| --- | --- | --- |
| ZIC3 (Zic family zinc finger 3) | 1.15 | inactive |
| ZIC3 (Zic family zinc finger 3) | 0.12 | inactive |
| ZIC3 (Zic family zinc finger 3) | 1.54 | inactive |
| ISOC2 (isochorismatase domain containing 2) | 1.72 | inactive |
| ISOC2 (isochorismatase domain containing 2) | 3.44 | active |
| ISOC2 (isochorismatase domain containing 2) | 3.09 | active |
| ISOC2 (isochorismatase domain containing 2) | 2.86 | active |
| NAPG (NSF attachment protein gamma) | 2.99 | active |
| NAPG (NSF attachment protein gamma) | 3.24 | active |
| NAPG (NSF attachment protein gamma) | 1.06 | inactive |
| NAPG (NSF attachment protein gamma) | 1.03 | inactive |
| OR6T1 (olfactory receptor family 6 subfamily T member 1) | -0.47 | inactive |
| OR6T1 (olfactory receptor family 6 subfamily T member 1) | -0.55 | inactive |
| OR6T1 (olfactory receptor family 6 subfamily T member 1) | -0.53 | inactive |
